# Measurements published in the supplement of paper PMC6924143.
# The data scatter; read single values as rough.
# Tested on: RAW-Blue (mouse TLR9 reporter, RAW 264.7)
# Test: mTLR9 reporter activity (SEAP, QUANTI-Blue absorbance) (OD650); higher = stronger mouse TLR9 activation
# Settings: 3 h
# Protocol: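 Synthetic single-stranded 24-mer CpG ODNs were diluted in saline and added to mouse RAW-Blue cells (RAW 264.7 with an NF-kB/AP-1-inducible SEAP reporter; endogenous mouse TLR9), about 1e5 cells/well. After 3 h, SEAP in the supernatant was read with QUANTI-Blue as absorbance at 650 nm. ODN concentration and backbone chemistry are not stated; activity of 0.4 or above is the paper's high-activity class.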
row,Sequence,mTLR9 reporter activity
1,TCGTTGCGGGGCTTCGTCCGCGCG [mODN92],0.5
2,TCGTTGCTCGTTTGCGTCGTTGAT [ODN614],0.702
3,TCGTTGGATCGCCCGATCTTGCGC [mODN060],0.49
4,TCGTTGTCGTGCGCGCGTGATTGT [ODN128],0.413
5,TCGTTTATCGTGTTCGCGCGTCGT [ODN818],0.332
6,TCGTTTCGATGCGTTCGCGCGTTT [ODN563],0.653
7,TCGTTTCGCGTGTTCGACGTTCGT [ODN111],0.306
8,TCGTTTCTTCGCTGGACCCCGGCG [mODN038],0.53
9,TCGTTTGCGCGTCGTGCTACTGCT [ODN692],0.465
10,TCGTTTGTTCGTCTTGCGTGTCGT [ODN570],0.241
11,TCGTTTTCGCGTACGCGCGTGTCT [ODN159],0.307
12,TCGTTTTGTGCGTCGAGCGTTGTT [ODN664],0.352
13,TCTACGCGTCTCGCGCGTGTTGCT [ODN181],0.082
14,TCTCCGTTACGCGGCGCAGGACTT [mODN064],0.26
15,TCTCGACGTCGTGCGTCTGTGTGT [ODN171],0.153
16,TCTCGCAGTTCCGCGCTTAGCGGT [mODN77],0.43
17,TCTCGCGACGCAGCGCGAGCGATT [ODN091],0.155
18,TCTCTGGACGGCGTTCGGCGCCTT [mODN98],0.57
19,TCTGAGCGACGTTGTCGACGAGTT [ODN072],0.183
20,TCTGTCGCGCGTCGAGTTTCGCTT [ODN247],0.286
21,TCTGTCTGTCGCGTGTACGTTCGT [ODN209],0.135
22,TCTGTTCGTCTATTGTGCGCGCGT [ODN189],0.084
23,TCTTCGACGCGCCGGTGGCGTTCT [mODN051],0.28
24,TCTTCGCGCTTCGTCGCGTGACGT [ODN221],0.165
25,TCTTCGCGTCGTGCGCGCTCGTGT [ODN177],0.091

row,Sequence,mTLR9 reporter activity
1,TCTTCGCGTGAGTCGCGTTTGTGT [ODN192],0.152
2,TCTTCGGTCGGCTTACGGCGACCA [mODN065],0.36
3,TCTTGCGCGCTATGTCGCGTTGTT [ODN184],0.115
4,TCTTGCGGATCCCGGTTCACGCCG [mODN032],0.25
5,TCTTGCGGCGTATACTTCGCCGCG [mODN-016],0.36
6,TCTTGCGTTGCGCGTCTTACGCGT [ODN244],0.232
7,TCTTTCGACCGGGGTTCCCGCGAT [mODN80],0.44
8,TCTTTTGAGTTTTTGCGTGCGCGT [ODN045],0.238
9,TGAAGTACGCGTGTGATCTGCTTT [ODN070],0.155
10,TGACGTCGCGTGTCTTCGTTTGCT [ODN227],0.233
11,TGACGTGCAGTGTACTGACTCGTT [ODN107],0.06
12,TGACTCAAGTTGCTGTGTCGCGTT [ODN083],0.137
13,TGAGCGCTAGTAGTATTGCGCGTT [ODN075],0.155
14,TGAGCTCTGTCTTGAGCTGCGTTT [ODN066],0.151
15,TGAGCTGCGTTTTTTTTGCAGCGT [ODN031],0.407
16,TGAGTCGTTGTGTCGCGCGCGTGT [ODN153],0.415
17,TGATTCTGTGTCGTCGTCGCGCGT [ODN260],0.14
18,TGCACAGTGTGTAGACGTGCTTTT [ODN099],0.09
19,TGCACGAGTGTTTTGTTTTGCGCT [ODN046],0.209
20,TGCAGCGTCTCGCGCGTCGTCTTT [ODN234],0.181
21,TGCAGTGCGTGTTTTGCGTCTTTT [ODN012],0.34
22,TGCAGTGTAAGTTCGCGTGTACTT [ODN061],0.18
23,TGCAGTTTTGACGCTGCGTTTTGT [ODN037],0.336
24,TGCGATTGTCGTCTTGTCGCGCGT [ODN178],0.096
25,TGCGCATGTTTTGCGCGAGTTTTT [ODN011],0.371

# Single values from above.
# For mTLR9 reporter activity, TGCACAGTGTGTAGACGTGCTTTT [ODN099] reads 0.09
# For mTLR9 reporter activity, TGCAGCGTCTCGCGCGTCGTCTTT [ODN234] reads 0.181
# For mTLR9 reporter activity, TGCGATTGTCGTCTTGTCGCGCGT [ODN178] reads 0.096

# Remaining list, next part

row,Sequence,mTLR9 reporter activity
1,TGCGCGCAGTCGTCTTTTGTCGTT [ODN203],0.095
2,TGCGCGCGTTTTGACTTGTTTCGT [ODN112],0.209
3,TGCGCGCTGTCTCGCGTGTGCGTT [ODN169],0.091
4,TGCGCGCTGTTGCTCTCGCGTGAT [ODN254],0.146
5,TGCGCGCTTTGATGTTGTCGCGCT [ODN175],0.098
6,TGCGCGTCGTCTATGTCGTTGCTT [ODN273],0.125
7,TGCGCGTCTGCGATTCGCTTCGTT [ODN133],0.176
8,TGCGCGTCTGCGCTTGCTCACGTT [ODN139],0.145
9,TGCGCGTCTGTCTCTCGCGTGAGT [ODN255],0.141
10,TGCGCGTTGCATATAGTGCGCGTT [ODN102],0.09
11,TGCGCTCGATGTTCGCGTTTGTTT [ODN272],0.115
12,TGCGTAGCTGCTCTGAGTGCGTTT [ODN081],0.16
13,TGCGTCGCTCGCTGTTCGTTAGCT [ODN229],0.205
14,TGCGTCTTTCGTGATTGCGCTCGT [ODN113],0.152
15,TGCGTGCGAGCTTTTTTTTGACGT [ODN058],0.143
16,TGCGTGCGTCTAGTTGCAGCGCTT [ODN082],0.139
17,TGCGTGCTAATGCTGTGTACGCTT [ODN090],0.12
18,TGCGTTCGTCTTGCGCTCGTGACT [ODN193],0.17
19,TGCGTTCGTGCGTCGCGTGTGAGT [ODN214],0.145
20,TGCGTTTTGCAGCGTTGCTTTTGT [ODN033],0.317
21,TGCTACGCGTGTCGCGAGCGCATT [ODN108],0.075
22,TGCTAGTGAAGTCGCGTTCTCGTT [ODN076],0.222
23,TGCTCGCGACGTGTGTGTTTCGTT [ODN257],0.151
24,TGCTCGTCGTGTCGCTTCGTTTGT [ODN256],0.145
25,TGCTCTCACTCGTGCGTCGTGCGT [ODN274],0.17

# Quoted at random: three records from the list, in no set order.
row,Sequence,mTLR9 reporter activity
24,TGCGATTGTCGTCTTGTCGCGCGT [ODN178],0.096
6,TGCGCGTCGTCTATGTCGTTGCTT [ODN273],0.125
20,TCTGTCGCGCGTCGAGTTTCGCTT [ODN247],0.286

# (listing goes on)

row,Sequence,mTLR9 reporter activity
1,TGCTCTCGAGCTGTCGTACGCGTT [ODN106],0.14
2,TGCTCTGTTCGCGCGTCGCAGTGT [ODN258],0.136
3,TGCTGTCGTGTTCGTGCTAGCTTT [ODN074],0.227
4,TGCTTGCGTTGCGCTATTCGCGCT [ODN223],0.269
5,TGTACTCAGAGCAGCGCTGCGTTT [ODN094],0.115
6,TGTACTCGTTGCGCGCTCGTTGCT [ODN204],0.244
7,TGTCGACTGCAAGATGTCGTCGTT [ODN089],0.176
8,TGTCGAGAGCTAGTGTTCACGTTT [ODN096],0.12
9,TGTCGCAGTCTGACAGTGCTCGTT [ODN098],0.115
10,TGTCGCGCTCGTGCTCGCGTTTCT [ODN191],0.165
11,TGTCGCGTGTGCGTAGCTGCACTT [ODN065],0.261
12,TGTCGCGTTTCGTGTTCTTGCGTT [ODN264],0.172
13,TGTCGCTTCTGCTAGCGTGTTGTT [ODN097],0.195
14,TGTCGTCGCATCGCGCTGTGTTGT [ODN147],0.388
15,TGTCGTCGCGTCTTGTTTGCGAGT [ODN263],0.176
16,TGTCGTGCTTGAGCGTCGCGCTTT [ODN266],0.146
17,TGTCGTGTGTCACGTTGTCGCGCT [ODN235],0.223
18,TGTCTCGTCTTGCGACGTCGTCGT [ODN251],0.153
19,TGTCTGCGCGATGCGTTGTCGTTT [ODN157],0.144
20,TGTCTGCGCGCGCGATGTCTGTTT [ODN120],0.073
21,TGTCTTTTGTGACGCGCGTTTTGT [ODN032],0.309
22,TGTGAGCGCGTTTTACTTTTGCGT [ODN052],0.178
23,TGTGAGCGTAGCGCGCTTTTTTTT [ODN050],0.238
24,TGTGAGCGTGCAGCTTTTGCTTTT [ODN020],0.359
25,TGTGAGTTTTGCTTTTCGCGCAGT [ODN059],0.147

row,Sequence,mTLR9 reporter activity
1,TGTGATGCGACGCGTGAGTTCTTT [ODN086],0.15
2,TGTGCGCGTGCGTCGCTCTTGATT [ODN194],0.102
3,TGTGCGCGTGTCAGATTTGCGATT [ODN073],0.173
4,TGTGCGCGTTCTTCGTCGCGAGTT [ODN161],0.216
5,TGTGCGCTTGTTGCAGAGTCTTTT [ODN085],0.166
6,TGTGCGTTCTCGCGTTGCGTGTGT [ODN242],0.208
7,TGTGCGTTGCGTCTAGACGAGCTT [ODN077],0.277
8,TGTGCGTTTTGCTTTTTGCGCGCT [ODN010],0.409
9,TGTGTCGTTTTGCTGCGCGATTTT [ODN013],0.839
10,TGTGTGCACGTCGTGCATCGATTT [ODN103],0.085
11,TGTGTGCGCTCGCGCTTCTCACGT [ODN122],0.176
12,TGTGTTCGCGTGCGTGTTCGTTAT [ODN241],0.146
13,TGTTAGACGCTTAGTGCGCGTCTT [ODN069],0.187
14,TGTTAGCGTTTTGCGCTTCGCGTT [ODN183],0.126
15,TGTTCTCGCGCGCGTGTTACTGCT [ODN150],0.147
16,TGTTCTTTTGCGCGCGCAGTCGTT [ODN237],0.136
17,TGTTGCGCGCGACTTTTGAGTTTT [ODN025],0.32
18,TGTTGCTGTCGCGTCGCTGCGAGT [ODN269],0.102
19,TGTTGTGTCGTCGCGTACGTTCTT [ODN265],0.129
20,TGTTTCGTAGCAGTGCGCGAACTT [ODN080],0.19
21,TGTTTCTCGCGTCTGTGCGATCGT [ODN158],0.229
